This is one part of the list.
Compound: Cc1cc(ccc1-c1ccccc1)C(=O)N1CCCN(CC1)C(=O)CCl [compound 10]
Test: probe-labelled cysteine peptide fold change vs DMSO (competition) (log2 fold change); higher = less target engagement (more negative = stronger competition)
Conditions: THP-1, incubation time: 4 h
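Note: competitive profiling in live THP-1 cells: cysteine peptides tagged with an iodoacetamide desthiobiotin (IA-DTB) probe, intensity after compound treatment relative to DMSO-treated cells.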

The chains behind the UniProt entries cited, without tags or fusion partners. Where a name states a change or a piece, a line headed by the entry shows the natural chain unless it says otherwise.
UniProt Q2M2I8: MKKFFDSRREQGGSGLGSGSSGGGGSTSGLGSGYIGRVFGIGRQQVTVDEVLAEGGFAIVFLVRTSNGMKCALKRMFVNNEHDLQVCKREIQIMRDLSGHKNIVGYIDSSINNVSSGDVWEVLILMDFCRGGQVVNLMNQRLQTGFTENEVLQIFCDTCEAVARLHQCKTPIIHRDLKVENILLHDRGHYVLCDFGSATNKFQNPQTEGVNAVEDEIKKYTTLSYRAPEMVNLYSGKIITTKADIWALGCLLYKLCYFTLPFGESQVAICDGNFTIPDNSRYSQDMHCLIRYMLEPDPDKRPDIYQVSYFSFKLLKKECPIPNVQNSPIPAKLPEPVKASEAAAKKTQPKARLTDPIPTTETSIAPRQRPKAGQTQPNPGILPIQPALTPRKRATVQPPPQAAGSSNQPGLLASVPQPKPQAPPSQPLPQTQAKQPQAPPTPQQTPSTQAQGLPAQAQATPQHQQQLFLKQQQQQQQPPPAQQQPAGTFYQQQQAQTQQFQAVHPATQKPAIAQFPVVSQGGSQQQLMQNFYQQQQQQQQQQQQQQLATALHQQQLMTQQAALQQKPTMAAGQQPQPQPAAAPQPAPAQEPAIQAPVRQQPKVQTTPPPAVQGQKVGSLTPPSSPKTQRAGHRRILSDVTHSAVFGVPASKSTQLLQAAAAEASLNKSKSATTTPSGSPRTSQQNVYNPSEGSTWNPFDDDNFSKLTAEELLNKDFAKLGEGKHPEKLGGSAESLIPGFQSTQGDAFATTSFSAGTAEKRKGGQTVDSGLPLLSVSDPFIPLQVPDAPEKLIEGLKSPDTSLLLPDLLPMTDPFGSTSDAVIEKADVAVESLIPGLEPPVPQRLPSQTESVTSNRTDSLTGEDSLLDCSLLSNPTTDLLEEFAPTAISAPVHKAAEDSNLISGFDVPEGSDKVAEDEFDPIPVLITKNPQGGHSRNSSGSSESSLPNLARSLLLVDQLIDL
UniProt P09110: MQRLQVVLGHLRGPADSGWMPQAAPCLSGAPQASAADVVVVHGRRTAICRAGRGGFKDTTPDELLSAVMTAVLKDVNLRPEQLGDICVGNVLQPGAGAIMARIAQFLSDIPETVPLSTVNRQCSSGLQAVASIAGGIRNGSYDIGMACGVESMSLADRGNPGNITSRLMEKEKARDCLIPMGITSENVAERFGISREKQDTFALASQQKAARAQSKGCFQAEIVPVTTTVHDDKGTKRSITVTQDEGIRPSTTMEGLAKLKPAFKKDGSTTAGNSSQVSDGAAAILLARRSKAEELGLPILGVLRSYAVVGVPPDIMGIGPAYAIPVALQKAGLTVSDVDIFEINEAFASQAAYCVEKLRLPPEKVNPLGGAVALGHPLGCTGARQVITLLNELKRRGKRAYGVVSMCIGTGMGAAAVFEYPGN
UniProt Q9NUJ1: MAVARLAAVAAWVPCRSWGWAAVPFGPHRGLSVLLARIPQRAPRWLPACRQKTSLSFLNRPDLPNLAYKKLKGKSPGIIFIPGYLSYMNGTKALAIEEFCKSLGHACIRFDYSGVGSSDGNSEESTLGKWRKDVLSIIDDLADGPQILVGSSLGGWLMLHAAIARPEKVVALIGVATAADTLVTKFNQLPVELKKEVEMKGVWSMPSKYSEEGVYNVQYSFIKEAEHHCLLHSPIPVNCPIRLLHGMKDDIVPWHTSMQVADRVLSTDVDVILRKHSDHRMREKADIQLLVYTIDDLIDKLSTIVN
UniProt Q9H3P7: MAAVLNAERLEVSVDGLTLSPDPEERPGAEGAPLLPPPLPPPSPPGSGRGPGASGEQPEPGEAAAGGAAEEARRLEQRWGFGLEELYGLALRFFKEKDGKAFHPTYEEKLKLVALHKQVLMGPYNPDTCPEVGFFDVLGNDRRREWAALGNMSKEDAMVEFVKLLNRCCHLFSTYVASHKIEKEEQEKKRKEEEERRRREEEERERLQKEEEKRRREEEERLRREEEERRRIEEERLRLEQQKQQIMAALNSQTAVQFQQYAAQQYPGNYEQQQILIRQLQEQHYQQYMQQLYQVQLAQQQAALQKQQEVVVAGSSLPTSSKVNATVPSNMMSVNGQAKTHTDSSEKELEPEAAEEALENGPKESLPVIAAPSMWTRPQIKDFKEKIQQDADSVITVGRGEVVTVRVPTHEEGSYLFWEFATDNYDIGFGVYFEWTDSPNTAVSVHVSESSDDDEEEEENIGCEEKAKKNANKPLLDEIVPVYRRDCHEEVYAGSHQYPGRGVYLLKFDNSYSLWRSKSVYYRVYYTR
UniProt Q99798: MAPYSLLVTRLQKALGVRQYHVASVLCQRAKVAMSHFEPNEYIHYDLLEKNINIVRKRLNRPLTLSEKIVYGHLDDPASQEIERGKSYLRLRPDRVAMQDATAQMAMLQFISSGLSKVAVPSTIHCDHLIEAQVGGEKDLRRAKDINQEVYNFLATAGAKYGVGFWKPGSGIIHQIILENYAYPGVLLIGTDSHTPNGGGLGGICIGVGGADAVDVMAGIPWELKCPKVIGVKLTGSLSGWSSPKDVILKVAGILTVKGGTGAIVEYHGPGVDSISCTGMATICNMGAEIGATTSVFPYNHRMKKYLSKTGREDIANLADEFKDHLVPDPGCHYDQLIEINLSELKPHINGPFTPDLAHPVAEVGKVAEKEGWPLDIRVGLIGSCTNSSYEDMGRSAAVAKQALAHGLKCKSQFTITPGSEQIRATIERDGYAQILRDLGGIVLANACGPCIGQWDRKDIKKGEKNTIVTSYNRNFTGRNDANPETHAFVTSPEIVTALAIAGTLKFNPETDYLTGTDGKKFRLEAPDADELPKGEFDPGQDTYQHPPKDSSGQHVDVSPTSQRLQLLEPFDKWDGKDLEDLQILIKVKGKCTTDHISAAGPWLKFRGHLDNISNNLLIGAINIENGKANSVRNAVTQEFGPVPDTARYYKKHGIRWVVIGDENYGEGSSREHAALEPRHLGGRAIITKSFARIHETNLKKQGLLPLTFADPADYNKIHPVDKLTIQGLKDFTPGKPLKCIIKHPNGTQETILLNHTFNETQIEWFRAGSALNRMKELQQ
UniProt Q9UKV3: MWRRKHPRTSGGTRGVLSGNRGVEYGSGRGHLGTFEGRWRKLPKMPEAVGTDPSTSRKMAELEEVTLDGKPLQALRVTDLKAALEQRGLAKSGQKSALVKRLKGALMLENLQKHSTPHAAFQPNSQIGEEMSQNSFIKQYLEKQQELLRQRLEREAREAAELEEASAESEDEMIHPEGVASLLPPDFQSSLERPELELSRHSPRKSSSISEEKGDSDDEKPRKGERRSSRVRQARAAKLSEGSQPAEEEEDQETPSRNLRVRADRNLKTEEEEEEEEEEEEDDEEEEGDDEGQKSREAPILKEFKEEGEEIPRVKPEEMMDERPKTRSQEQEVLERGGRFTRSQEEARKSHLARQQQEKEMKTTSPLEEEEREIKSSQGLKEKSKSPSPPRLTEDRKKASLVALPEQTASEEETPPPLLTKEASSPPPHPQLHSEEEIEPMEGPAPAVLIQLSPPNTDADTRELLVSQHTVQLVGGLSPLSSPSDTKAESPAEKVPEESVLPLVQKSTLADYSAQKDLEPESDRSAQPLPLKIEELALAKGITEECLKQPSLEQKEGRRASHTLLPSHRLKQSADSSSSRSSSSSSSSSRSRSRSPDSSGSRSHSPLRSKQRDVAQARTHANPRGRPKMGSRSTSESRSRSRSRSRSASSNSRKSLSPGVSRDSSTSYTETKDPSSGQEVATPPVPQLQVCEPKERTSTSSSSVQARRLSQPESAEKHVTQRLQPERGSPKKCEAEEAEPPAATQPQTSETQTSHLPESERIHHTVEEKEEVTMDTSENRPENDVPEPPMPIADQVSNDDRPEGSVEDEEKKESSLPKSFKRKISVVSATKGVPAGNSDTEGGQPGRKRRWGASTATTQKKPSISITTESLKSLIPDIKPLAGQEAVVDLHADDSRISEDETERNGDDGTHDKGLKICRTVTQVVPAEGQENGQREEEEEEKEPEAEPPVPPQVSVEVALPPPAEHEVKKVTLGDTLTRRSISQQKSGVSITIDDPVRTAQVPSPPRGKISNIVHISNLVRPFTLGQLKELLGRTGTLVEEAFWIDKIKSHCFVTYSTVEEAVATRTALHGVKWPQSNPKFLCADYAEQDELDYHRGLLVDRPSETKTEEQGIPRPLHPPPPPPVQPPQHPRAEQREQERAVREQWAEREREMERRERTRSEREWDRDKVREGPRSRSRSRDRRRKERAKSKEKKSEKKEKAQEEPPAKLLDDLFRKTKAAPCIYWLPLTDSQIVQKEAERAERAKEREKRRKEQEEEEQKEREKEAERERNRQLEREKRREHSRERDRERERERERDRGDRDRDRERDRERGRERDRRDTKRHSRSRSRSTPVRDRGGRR
UniProt Q5JTZ9, whole entry, looked up: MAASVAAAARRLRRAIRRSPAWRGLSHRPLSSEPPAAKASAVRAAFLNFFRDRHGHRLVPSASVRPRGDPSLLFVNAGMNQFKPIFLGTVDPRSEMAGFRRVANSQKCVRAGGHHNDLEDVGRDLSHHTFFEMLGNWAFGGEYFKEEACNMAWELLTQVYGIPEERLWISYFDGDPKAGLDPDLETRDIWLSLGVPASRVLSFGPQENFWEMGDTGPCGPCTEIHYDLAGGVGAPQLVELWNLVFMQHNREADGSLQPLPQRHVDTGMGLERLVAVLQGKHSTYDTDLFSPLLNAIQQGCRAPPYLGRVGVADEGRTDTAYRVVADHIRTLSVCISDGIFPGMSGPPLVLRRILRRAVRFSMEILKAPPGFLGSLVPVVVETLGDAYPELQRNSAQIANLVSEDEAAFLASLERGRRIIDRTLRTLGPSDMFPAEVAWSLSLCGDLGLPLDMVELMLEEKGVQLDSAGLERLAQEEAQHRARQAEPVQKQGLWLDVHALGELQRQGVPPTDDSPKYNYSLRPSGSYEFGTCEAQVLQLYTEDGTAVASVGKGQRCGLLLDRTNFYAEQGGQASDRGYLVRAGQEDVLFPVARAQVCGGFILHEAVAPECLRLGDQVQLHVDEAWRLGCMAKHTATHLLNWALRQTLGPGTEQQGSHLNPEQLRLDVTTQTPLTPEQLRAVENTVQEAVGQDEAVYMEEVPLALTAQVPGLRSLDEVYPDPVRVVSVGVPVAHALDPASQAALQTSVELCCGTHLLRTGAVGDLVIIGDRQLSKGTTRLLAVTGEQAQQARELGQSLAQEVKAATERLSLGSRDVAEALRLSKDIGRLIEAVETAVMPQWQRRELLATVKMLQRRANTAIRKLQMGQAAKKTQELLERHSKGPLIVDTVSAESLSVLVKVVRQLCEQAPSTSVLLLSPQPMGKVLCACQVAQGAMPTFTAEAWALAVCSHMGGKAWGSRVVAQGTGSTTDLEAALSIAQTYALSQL
UniProt Q8N2K0: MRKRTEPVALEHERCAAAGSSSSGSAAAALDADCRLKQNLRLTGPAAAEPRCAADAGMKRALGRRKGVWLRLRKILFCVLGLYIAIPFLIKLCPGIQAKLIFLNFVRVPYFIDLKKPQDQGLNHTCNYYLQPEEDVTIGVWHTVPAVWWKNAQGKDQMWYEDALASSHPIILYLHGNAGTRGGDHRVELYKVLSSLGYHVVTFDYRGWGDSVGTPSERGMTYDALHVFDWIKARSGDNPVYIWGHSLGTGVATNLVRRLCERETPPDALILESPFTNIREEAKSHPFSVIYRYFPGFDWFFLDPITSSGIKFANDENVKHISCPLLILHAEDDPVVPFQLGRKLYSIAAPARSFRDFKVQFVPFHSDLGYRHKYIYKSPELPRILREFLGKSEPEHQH
UniProt Q9UG63: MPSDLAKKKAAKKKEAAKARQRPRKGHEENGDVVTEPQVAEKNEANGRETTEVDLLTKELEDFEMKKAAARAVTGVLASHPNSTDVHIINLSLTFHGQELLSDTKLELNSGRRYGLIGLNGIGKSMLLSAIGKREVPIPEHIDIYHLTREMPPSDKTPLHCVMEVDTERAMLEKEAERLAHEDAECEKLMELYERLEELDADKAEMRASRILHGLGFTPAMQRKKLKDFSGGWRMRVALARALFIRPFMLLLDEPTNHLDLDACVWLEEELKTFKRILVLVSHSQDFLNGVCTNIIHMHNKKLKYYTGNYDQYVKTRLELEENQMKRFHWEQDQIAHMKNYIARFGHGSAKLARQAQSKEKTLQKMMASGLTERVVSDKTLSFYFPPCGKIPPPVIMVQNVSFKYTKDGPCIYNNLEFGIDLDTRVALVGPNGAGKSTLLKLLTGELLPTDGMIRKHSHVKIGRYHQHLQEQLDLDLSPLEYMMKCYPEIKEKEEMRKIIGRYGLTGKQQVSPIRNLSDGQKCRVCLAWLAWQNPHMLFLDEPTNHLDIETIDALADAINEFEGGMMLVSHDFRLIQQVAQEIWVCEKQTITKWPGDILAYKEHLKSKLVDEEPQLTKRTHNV
UniProt Q9H7C9: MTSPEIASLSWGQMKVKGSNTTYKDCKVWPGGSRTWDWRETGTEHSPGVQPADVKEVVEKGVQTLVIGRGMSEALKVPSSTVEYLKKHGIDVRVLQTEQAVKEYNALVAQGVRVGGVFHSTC

Target	probe-labelled cysteine peptide fold change (10 µM)	probe-labelled cysteine peptide fold change (50 µM)
AARS_P49588_533_TCFYAEQGGQIYDEGYLVK (UniProt P49588)	-0.3	0.0208
AACS_Q86V21_493_AVWGESGELVCTKPIPCQPTHFWNDENGNK (UniProt Q86V21)	-0.0997	-0.0186
ACADVL_P49748_603_MLCDTWCIEAAAR (UniProt P49748)	-0.105	-0.188
ACOT13_Q9NPJ3_74_VEEEHTNAIGTLHGGLTATLVDNISTMALLCTER (UniProt Q9NPJ3)	0.000386	0.204
AAK1_Q2M2I8_319_KECPIPNVQNSPIPAK (UniProt Q2M2I8)	-0.172	-0.101
ACAA1_P09110_87_DVNLRPEQLGDICVGNVLQPGAGAIMAR (UniProt P09110)	-0.0367	0.282
ABHD3_Q8WU67_86_FLQDHCPVVTETYYPTVWCWEGR (UniProt Q8WU67)	-0.00323	0.159
ACAA2_P42765_287_IVGYFVSGCDPSIMGIGPVPAISGALK (UniProt P42765)	0.0345	0.0187
ABHD11_Q8NFV4_135_NHGDSPHSPDMSYEIMSQDLQDLLPQLGLVPCVVVGHSMGGK (UniProt Q8NFV4)	0.196	-0.135
ABCC1_P33527_1479_TQFEDCTVLTIAHR (UniProt P33527)	0.0293	0.0229
ABHD10_Q9NUJ1_107_SLGHACIR (UniProt Q9NUJ1)	0.189	0.189
ABCD3_P28288_477_SGANVLICGPNGCGK (UniProt P28288)	0.727	0.0817
ACAA1_P09110_177_DCLIPMGITSENVAER (UniProt P09110)	-0.246	-0.141
ACBD3_Q9H3P7_168_CCHLFSTYVASHK (UniProt Q9H3P7)	-0.0129	0.0177
ACO2_Q99798_451_DLGGIVLANACGPCIGQWDR (UniProt Q99798)	0.131	0.0722
AARSD1_Q9BTE6_266_CGAEDHVEAVK (UniProt Q9BTE6)	-0.0537	-0.212

Target	probe-labelled cysteine peptide fold change (10 µM)	probe-labelled cysteine peptide fold change (50 µM)
ABRAXAS2_Q15018_237_VVESCQAEVNK (UniProt Q15018)	-0.0514	0.106
ABHD15_Q6UXT9_323_EFEEALFCHTK (UniProt Q6UXT9)	0.0269	-0.0455
ACOT9_Q9Y305_128_ILEDLDSLGVLICYMHNK (UniProt Q9Y305)	0.118	0.23
AAK1_Q2M2I8_159_LQTGFTENEVLQIFCDTCEAVAR (UniProt Q2M2I8)	-0.00759	0.0488
ACIN1_Q9UKV3_1052_SHCFVTYSTVEEAVATR (UniProt Q9UKV3)	-0.047	0.0746
AARS2_Q5JTZ9_596+609_AQVCGGFILHEAVAPECLR (UniProt Q5JTZ9)	-0.256	-0.572
ABCE1_P61221_201_TQAIVCQQLDLTHLK (UniProt P61221)	-0.0707	-0.159
ABHD12_Q8N2K0_323_HISCPLLILHAEDDPVVPFQLGR (UniProt Q8N2K0)	0.128	0.089
ABCF2_Q9UG63_586_LIQQVAQEIWVCEK (UniProt Q9UG63)	0.35	0.325
AACS_Q86V21_299_CMVHSAGGTLIQHLK (UniProt Q86V21)	-0.266	0.176
ACBD3_Q9H3P7_129_QVLMGPYNPDTCPEVGFFDVLGNDR (UniProt Q9H3P7)	0.23	0.288
ACO1_P21399_118_INPVCPADLVIDHSIQVDFNR (UniProt P21399)	-0.113	-0.0146
AAMDC_Q9H7C9_122_VGGVFHSTC (UniProt Q9H7C9)	-0.142	0.0875
ACOT11_Q8WXI4_498_RKPCDNGDPYVIALR (UniProt Q8WXI4)	-0.0607	-0.24
ACO2_Q99798_451_DLGGIVLANACGPCIGQWDRK (UniProt Q99798)	-0.125	-0.398

At a glance, some entries already given.
Target	probe-labelled cysteine peptide fold change (10 µM)	probe-labelled cysteine peptide fold change (50 µM)
AAK1_Q2M2I8_159_LQTGFTENEVLQIFCDTCEAVAR (UniProt Q2M2I8)	-0.00759	0.0488
ACIN1_Q9UKV3_1052_SHCFVTYSTVEEAVATR (UniProt Q9UKV3)	-0.047	0.0746
AARS2_Q5JTZ9_596+609_AQVCGGFILHEAVAPECLR (UniProt Q5JTZ9)	-0.256	-0.572
ABCE1_P61221_201_TQAIVCQQLDLTHLK (UniProt P61221)	-0.0707	-0.159
ABHD12_Q8N2K0_323_HISCPLLILHAEDDPVVPFQLGR (UniProt Q8N2K0)	0.128	0.089
ABCF2_Q9UG63_586_LIQQVAQEIWVCEK (UniProt Q9UG63)	0.35	0.325
AACS_Q86V21_299_CMVHSAGGTLIQHLK (UniProt Q86V21)	-0.266	0.176
ACBD3_Q9H3P7_129_QVLMGPYNPDTCPEVGFFDVLGNDR (UniProt Q9H3P7)	0.23	0.288
ACO1_P21399_118_INPVCPADLVIDHSIQVDFNR (UniProt P21399)	-0.113	-0.0146

Source: the supplement of paper PMC12067093, “Discovery and optimisation of a covalent ligand for TRIM25 and its application to targeted protein ubiquitination” (Chemical Science, 2025)
